# Results of single-concentration screens

Amino acid sequences for entries named in this document (tags omitted). Residues count along the entry.
UniProt Q8IDJ8, 1-583: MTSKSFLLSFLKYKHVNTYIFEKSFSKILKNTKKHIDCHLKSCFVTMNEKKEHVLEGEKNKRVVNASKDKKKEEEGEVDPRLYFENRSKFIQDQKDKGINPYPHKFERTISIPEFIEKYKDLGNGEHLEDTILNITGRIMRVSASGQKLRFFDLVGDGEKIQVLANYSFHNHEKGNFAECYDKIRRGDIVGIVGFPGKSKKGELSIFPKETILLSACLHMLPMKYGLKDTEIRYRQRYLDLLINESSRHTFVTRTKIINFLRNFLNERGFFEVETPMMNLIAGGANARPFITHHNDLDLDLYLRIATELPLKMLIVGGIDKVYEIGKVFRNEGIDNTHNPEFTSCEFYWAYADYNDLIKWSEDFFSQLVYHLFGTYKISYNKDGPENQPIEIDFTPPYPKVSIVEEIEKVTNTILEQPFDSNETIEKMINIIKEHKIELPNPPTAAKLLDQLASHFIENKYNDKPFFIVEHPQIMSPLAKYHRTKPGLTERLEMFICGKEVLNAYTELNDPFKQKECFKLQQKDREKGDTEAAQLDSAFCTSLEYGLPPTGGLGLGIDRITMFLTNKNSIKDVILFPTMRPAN
UniProt P9WNZ1, whole entry: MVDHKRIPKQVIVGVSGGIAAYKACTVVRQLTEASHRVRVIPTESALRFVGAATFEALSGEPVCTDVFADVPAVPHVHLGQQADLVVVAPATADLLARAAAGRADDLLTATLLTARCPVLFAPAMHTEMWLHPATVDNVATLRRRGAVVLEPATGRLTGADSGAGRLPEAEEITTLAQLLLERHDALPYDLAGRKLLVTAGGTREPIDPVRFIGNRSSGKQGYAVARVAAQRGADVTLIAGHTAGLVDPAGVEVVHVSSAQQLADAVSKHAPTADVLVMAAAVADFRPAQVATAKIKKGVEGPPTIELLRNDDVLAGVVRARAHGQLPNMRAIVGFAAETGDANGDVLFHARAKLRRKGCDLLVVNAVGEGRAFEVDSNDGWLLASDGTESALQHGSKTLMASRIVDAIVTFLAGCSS

A: 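Enzyme assay of the cytosolic lysyl-tRNA synthetase in 384-well plates, read by luminescence. Target: Lysine-tRNA ligase, Plasmodium falciparum 3D7 (UniProt Q8IDJ8). Tested at 30 µM. Direction is inferred from only a few compounds that gave an IC50; most scored high, so higher reads as stronger inhibition. Size under these conditions: about 69,000 compounds, about 49 of them at 50% or above in at least one test.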
B: 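Assay of Toxoplasma gondii numbers, read through their beta-galactosidase reporter with a colour substrate. Tested at 10 µM. Higher reads as fewer parasites (inferred from which compounds were picked for retests). About 67,000 compounds were tested under these conditions; 0.38% (about 260) showed 50% or more at least once.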
C: 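Coenzyme A biosynthesis protein CoaBC, Mycobacterium tuberculosis (UniProt P9WNZ1). Enzyme assay of CoaBC with a phosphate dye (Biomol Green) read at 650 nm. Compounds at 30 µM. Direction is inferred from only a few compounds that gave an IC50; most scored high, so higher reads as stronger inhibition. Most strong results did not repeat in a second test. Size under these conditions: about 67,000 compounds, about 40 of them at 50% or above in at least one test.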

Results are given as percent effect.
The record does not define 0% and 100%; most values in the screen are far below 50% and negative numbers occur (in some assays of this library far below -100).
The compounds are a random part of those screened.
Two or more numbers in one place are separate tests of the same structure; such repeats can differ widely.
A dash means the value is not listed here; it may have been measured.

| SMILES | A | B | C |
|---|---|---|---|
| `CCn1cc(S(=O)(=O)NCc2ccnc(-n3ccnc3)c2)cn1` | 1.61 | 3.557 | 2.166 |
| `Cc1cc(N2CCC(CO)(CC3CCCCO3)CC2)c2ccccc2n1` (configuration not stated) | 6.547 | -7.854 | 5.59 |
| `CC1CN(C)c2ccccc2CN1C(=O)c1cc[nH]c(=O)c1` (configuration not stated) | -1.973 | -5.837 | 1.711 |
| `Cc1cc(C(=O)N2CCCC3(COCCN(CCN(C)C)C3)C2)no1` (configuration not stated) | 16.95 | - | 7.818 |
| `CS(=O)(=O)CC1CCCN(c2ncnc3c2Cc2ccccc2OC3)C1` (configuration not stated) | 0.7506 | -20.85 | 4.099 |
| `COCCNC(=O)N1CCN(c2cc(F)ccc2F)CC1` | 5.67 | 6.358 | 11.55 |
| `[H][C@@]12CN(CCCc3ccccc3)C[C@]1([H])OCC(=O)N2CCOC` | - | 16.88 | - |
| `COCC(=O)N1CCC(c2cc(-c3ccc(OC)cc3)n[nH]2)C1` (configuration not stated) | -0.5865 | -11.69 | -4.049 |
| `Cc1n[nH]c(C2CN(C(=O)c3ccn(C)c(=O)c3)CCO2)n1` (configuration not stated) | 0.6628 | -4.227 | - |
| `Cc1ccc(CNC(=O)NCC(=O)NC(C)(C)C)c(N2CCCC2)c1` | 1.099 | 2.144 | 8.293 |
| `Cc1ccc(C(C)NCc2c(C(C)C)nn(C)c2N2CCOCC2)o1` (configuration not stated) | 1.045 | -21.06 | 2.216 |
| `CCN1CCC(NC(=O)NC2CCOc3ccc(Br)cc32)CC1` (configuration not stated) | 5.144 | 2.875 | -0.8032 |
| `COCCN1C(=O)C2(CCC(C(=O)Nc3cccc(C)c3)CC2)N=C1C` (configuration not stated) | 2.875 | -13.92 | -0.8333 |
| `CC(C)(C)N1CC(c2ncc(-c3ccc4c(c3)OCCO4)[nH]2)CC1=O` (configuration not stated) | 0.1307 | -9.652 | 7.692 |
| `CC(NC(=O)Nc1cccnc1N1CCCC1)c1ccn(C)c1` (configuration not stated) | 0.4729 | 3.804 | 33.51 & 22.24 |
| `CN1CCCC(Cc2cncc(C(=O)NC3CC3)c2)C1` (configuration not stated) | 0.9051 | 8.321 | 3.594 |
| `CN(C)C(=O)CC1CC2(CCN(CC3CC3)CC2)c2cc(F)ccc21.O=C(O)C(F)(F)F` (configuration not stated) | - | 0.3765 | - |
| `Cc1cccc(N2CCc3ncc(CNc4ccccn4)n3CC2)n1` | 7.617 | - | 1.975 |
| `Cc1oc(-c2ccc(F)cc2F)nc1CN1C[C@@H](C)O[C@@H](C)C1` | 2.066 | -12.09 | -2.616 |
| `C[C@H]1CN(Cc2cnn(C)c2)C[C@@]12CCN(Cc1cccnc1)C2=O` | -3.208 | 2.218 | -0.2418 |
| `CCC(C)C(=O)N(Cc1ccccn1)C1CC1` (configuration not stated) | 0.979 | -1.417 | 4.866 |
| `Cc1ccc(N[C@@H]2CN(Cc3cc(C)on3)C[C@@H]3CCCO[C@@H]32)nn1` | -1.065 | - | -4.198 |
| `CCc1nc(C(=O)N2CCCCC2)nn1-c1ccccc1Cl` | 1.627 | -25.04 | 4.563 |
| `Cc1nc(C)n(CC2CCCN2c2ncnc3c2CCC3)n1` (configuration not stated) | 1.429 | 2.967 | -6.667 |
| `CC(C)NC(=O)CC1(Cn2cnnn2)CCCCC1` | 7.287 | 0.1391 | 0.2532 |
| `Cc1cc(O)cc(=O)n1CCCC(=O)Nc1n[nH]c2ccccc12` | -5.128 | 3.312 | -1.937 |
| `O=C(O)C(F)(F)F.c1cncc(N2CCC3(CCCN(c4ccncc4)C3)CC2)c1` | - | 3.366 | - |
| `Cc1cccc(CN2CCn3c(C(=O)N(C)C)cnc3C2)c1` | 2.105 | -22.84 | 4.25 |
| `[H][C@]12CCC[C@@]1(COCC1CCOCC1)CN(C(=O)c1ccc(C)o1)C2` | - | -7.824 | - |
| `CNC(=O)Cc1ccccc1NC(=O)C1CCN(C2CCCCC2)C1` (configuration not stated) | 3.724 | 1.374 | - |
| `Cc1ncc2c(n1)CCN(Cc1nc(Cc3ccccc3)no1)C2` | -0.1212 | -14.14 | 0.495 |
| `[H][C@@]12CS(=O)(=O)C[C@]1([H])N(C(=O)CCC(F)(F)F)CCN2Cc1[nH]cnc1C` | - | -2.145 | - |
| `[H][C@@]12CCN(S(=O)(=O)c3cccs3)[C@]1([H])CCC(=O)N2CC` | - | -17.6 | - |
| `O=C(NCCc1nnc2n1CCC2)N1CCC2(CCCCC2)C1` | 2.586 | 6.939 | -3.823 |
| `Cc1ccc(CN2CCC3(CC2)C(=O)NCCN3CC2CC2)o1` | 1.044 | -3.824 | -3.043 |
| `Cc1ccc(N2CCCC(NC(=O)C(C)(C)C#N)C2=O)cc1` (configuration not stated) | -0.2219 | 9.661 | 6.407 |
| `[H][C@@]12C[C@H](c3nnc(C)o3)O[C@@]1([H])CCN(C(=O)Cc1ccc(F)cc1)C2` | - | -35.94 | - |
| `Cc1oncc1C(=O)N1CC[C@H]2[C@H](C[C@@H](CN3CCCC3)N2C)C1` | 3.259 | - | 4.97 |
| `CN(C)C(=O)C1CCN(C2CCN(CC3CCC3)CC2)CC1.O=C(O)C(F)(F)F.O=C(O)C(F)(F)F` | - | -20.12 | - |
| `O=C(O)[C@H]1C[C@@H](C(=O)NCc2ccncc2)CN(Cc2ccccc2)C1` | 5.998 | 6.823 | 11.73 |
| `O=C(Nc1ccccc1)C1CN(Cc2ccsc2)CC12CCOCC2` (configuration not stated) | 4.593 | - | -4.078 |
| `NC(=O)CN1CCC(C(=O)NCc2nc(-c3ccc(F)cc3)cs2)CC1` | 1.346 | 4.088 | 7.158 |
| `O=C(C1CCCC1)N1CCN(Cc2ccncc2)[C@@H]2CS(=O)(=O)C[C@@H]21` | 7.439 | - | -2.447 |
| `COc1cc(CNc2cnn(CCN3CCOCC3)c2)cc(OC)c1` | 3.17 | 3.827 | 7.252 |
| `Cn1c(C(=O)N2CCOCC2)nc2c1CCN(c1ncccn1)C2` | 10.82 | -5.124 | - |
| `Cc1nn(C)c(C)c1C1CCCN1C(=O)c1ccnc(N(C)C)c1` (configuration not stated) | -1.057 | 17.48 | 1.828 |
| `Cc1nc(C)n(CC2CCCN2c2ncnc3sccc23)n1` (configuration not stated) | 6.545 | -6.961 | 5.825 |
| `CC(C)NC(=O)C1CCC2(CCNCC2)C1` (configuration not stated) | 5.529 | -46.8 | 3.817 |
| `Cc1cccc(CS(=O)(=O)NCc2nn(C)c3c2CCCC3)c1` | 3.481 | 3.153 | 0.1122 |
| `CC(C)(C)OC(=O)NCC1CCN(C(=O)c2ccc(F)cc2F)C1` (configuration not stated) | 2.632 | -1.606 | 5.857 |
| `CCc1nnc(CN2CCCCC2Cn2nc(C)nc2C)o1` (configuration not stated) | 0.5187 | -7.518 | -5.29 |
| `CC(C)c1noc(-c2cccc(OCC(N)=O)c2)n1` | 1.856 | 19.1 | 0.6588 |

The last 4 entries again:

| SMILES | A | B | C |
|---|---|---|---|
| `Cc1cccc(CS(=O)(=O)NCc2nn(C)c3c2CCCC3)c1` | 3.481 | 3.153 | 0.1122 |
| `CC(C)(C)OC(=O)NCC1CCN(C(=O)c2ccc(F)cc2F)C1` (configuration not stated) | 2.632 | -1.606 | 5.857 |
| `CCc1nnc(CN2CCCCC2Cn2nc(C)nc2C)o1` (configuration not stated) | 0.5187 | -7.518 | -5.29 |
| `CC(C)c1noc(-c2cccc(OCC(N)=O)c2)n1` | 1.856 | 19.1 | 0.6588 |

Data taken from ChEMBL document CHEMBL3988442, “University of Dundee, Small-Polar-MMV Screening Library” (2021).